# Test results reported in the supplement of paper PMC7666118.
# Sequences of proteins named here, by UniProt entry; tags and fusion partners are left off. A change or cut given only in a name is not applied to a line headed by its entry.
# UniProt Q8WZA1: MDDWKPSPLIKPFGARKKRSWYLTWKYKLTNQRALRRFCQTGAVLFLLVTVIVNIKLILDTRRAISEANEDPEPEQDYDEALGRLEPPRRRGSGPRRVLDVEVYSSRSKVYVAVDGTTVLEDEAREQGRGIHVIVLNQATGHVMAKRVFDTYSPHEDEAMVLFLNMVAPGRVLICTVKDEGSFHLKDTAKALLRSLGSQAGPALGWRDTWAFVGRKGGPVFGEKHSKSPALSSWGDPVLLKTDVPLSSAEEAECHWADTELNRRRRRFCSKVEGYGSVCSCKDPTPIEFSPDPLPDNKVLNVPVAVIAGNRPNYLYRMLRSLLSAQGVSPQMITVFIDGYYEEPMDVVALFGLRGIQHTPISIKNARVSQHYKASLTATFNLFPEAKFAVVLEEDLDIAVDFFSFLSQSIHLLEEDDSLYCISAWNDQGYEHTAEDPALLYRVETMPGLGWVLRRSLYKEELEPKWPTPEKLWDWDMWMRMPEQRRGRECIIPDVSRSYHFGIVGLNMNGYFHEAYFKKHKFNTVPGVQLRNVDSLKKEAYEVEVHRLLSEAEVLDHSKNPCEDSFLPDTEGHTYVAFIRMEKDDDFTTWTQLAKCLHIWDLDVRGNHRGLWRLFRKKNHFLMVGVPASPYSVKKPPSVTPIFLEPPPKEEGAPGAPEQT
# UniProt O95602, whole entry: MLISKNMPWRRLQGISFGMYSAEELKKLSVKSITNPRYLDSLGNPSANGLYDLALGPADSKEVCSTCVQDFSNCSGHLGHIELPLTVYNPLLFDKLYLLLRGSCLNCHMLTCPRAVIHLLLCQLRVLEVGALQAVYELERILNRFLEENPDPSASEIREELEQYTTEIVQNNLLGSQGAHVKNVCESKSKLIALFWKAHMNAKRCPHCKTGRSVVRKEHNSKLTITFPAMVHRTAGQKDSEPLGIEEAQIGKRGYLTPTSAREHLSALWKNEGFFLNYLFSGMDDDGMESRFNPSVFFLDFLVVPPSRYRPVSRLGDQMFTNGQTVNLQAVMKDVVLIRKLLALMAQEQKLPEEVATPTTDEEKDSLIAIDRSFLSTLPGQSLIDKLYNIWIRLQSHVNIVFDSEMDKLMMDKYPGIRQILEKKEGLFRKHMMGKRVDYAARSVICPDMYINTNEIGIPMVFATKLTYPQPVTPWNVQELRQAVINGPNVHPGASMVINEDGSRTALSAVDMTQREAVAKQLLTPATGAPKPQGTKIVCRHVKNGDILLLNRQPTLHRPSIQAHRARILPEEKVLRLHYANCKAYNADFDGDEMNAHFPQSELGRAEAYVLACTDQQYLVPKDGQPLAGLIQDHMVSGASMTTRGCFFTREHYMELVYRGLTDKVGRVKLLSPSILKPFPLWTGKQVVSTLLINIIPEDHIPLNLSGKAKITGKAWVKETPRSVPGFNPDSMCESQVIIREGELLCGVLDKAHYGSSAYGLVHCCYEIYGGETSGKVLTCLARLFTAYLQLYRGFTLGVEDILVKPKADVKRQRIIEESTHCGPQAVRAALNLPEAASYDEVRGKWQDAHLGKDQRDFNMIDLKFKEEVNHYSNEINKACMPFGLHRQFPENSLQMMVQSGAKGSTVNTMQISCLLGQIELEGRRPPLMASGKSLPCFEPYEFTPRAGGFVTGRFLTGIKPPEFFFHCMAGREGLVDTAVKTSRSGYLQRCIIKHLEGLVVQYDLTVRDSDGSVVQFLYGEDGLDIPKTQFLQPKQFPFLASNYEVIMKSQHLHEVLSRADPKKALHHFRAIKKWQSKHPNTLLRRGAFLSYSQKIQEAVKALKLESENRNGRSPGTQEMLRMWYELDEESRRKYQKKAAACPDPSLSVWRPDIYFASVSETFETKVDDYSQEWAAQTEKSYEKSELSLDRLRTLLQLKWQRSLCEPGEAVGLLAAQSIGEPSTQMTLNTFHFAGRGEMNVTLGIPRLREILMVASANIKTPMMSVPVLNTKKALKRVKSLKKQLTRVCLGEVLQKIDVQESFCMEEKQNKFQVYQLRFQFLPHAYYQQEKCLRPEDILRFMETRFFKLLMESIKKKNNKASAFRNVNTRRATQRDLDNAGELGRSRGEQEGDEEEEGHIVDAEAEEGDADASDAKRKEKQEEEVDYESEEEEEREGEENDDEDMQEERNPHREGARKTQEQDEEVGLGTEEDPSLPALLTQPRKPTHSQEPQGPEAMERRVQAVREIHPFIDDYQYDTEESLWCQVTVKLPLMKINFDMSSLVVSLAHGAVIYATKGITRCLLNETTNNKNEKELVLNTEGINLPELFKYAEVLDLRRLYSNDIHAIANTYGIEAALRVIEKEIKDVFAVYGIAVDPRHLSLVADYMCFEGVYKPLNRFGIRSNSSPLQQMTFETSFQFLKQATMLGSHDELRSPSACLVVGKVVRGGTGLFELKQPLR
# UniProt Q8N490: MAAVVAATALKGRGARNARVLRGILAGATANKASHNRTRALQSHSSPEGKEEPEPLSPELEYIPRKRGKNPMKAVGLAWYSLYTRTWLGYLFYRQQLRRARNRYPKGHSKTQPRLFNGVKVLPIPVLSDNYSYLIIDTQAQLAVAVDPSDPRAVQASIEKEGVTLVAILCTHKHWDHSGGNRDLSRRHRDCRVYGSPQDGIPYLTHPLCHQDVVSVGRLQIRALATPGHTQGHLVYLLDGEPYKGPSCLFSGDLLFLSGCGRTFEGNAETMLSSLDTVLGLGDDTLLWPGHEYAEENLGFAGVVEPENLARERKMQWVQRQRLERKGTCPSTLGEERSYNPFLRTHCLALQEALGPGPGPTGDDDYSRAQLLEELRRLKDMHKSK
# UniProt Q9C0I1: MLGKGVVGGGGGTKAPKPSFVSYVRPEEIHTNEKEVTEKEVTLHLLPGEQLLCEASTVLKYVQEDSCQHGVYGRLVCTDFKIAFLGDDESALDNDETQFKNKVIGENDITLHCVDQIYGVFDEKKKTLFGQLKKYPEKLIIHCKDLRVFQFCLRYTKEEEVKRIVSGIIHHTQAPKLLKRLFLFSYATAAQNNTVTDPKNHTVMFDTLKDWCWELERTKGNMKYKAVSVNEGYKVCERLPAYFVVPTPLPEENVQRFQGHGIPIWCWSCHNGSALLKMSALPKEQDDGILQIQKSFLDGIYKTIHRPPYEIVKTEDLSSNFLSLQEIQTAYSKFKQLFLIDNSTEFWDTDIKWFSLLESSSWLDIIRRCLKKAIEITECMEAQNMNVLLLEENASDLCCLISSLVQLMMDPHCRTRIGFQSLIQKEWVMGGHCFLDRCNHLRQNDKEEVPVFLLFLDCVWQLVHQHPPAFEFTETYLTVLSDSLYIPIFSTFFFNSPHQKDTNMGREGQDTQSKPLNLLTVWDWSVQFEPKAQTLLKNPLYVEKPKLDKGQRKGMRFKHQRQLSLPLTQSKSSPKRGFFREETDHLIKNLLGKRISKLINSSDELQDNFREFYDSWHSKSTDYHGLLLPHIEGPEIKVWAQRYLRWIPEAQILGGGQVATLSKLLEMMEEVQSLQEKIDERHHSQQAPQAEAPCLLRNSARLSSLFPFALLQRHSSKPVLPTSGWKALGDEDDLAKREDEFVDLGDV
# UniProt Q96L50: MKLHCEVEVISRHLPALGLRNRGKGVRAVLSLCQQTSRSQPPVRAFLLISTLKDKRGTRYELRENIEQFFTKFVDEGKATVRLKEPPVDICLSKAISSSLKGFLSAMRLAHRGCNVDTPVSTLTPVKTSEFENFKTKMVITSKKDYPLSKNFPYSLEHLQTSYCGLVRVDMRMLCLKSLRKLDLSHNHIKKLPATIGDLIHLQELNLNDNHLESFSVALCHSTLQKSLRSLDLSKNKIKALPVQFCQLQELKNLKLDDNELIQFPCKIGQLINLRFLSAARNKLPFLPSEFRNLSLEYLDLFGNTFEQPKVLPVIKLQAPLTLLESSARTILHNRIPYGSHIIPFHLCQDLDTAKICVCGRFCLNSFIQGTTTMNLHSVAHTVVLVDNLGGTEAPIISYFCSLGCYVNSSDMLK
# UniProt Q9HAB8: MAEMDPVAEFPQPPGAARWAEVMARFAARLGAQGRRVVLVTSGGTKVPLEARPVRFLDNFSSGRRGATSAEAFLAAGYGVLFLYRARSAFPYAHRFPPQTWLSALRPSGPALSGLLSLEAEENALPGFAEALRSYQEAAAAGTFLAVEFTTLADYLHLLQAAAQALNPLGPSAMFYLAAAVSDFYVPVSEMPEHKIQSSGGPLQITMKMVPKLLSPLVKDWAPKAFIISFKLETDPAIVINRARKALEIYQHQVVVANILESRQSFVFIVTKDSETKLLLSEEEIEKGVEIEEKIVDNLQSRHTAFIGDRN
# UniProt Q9UNP9: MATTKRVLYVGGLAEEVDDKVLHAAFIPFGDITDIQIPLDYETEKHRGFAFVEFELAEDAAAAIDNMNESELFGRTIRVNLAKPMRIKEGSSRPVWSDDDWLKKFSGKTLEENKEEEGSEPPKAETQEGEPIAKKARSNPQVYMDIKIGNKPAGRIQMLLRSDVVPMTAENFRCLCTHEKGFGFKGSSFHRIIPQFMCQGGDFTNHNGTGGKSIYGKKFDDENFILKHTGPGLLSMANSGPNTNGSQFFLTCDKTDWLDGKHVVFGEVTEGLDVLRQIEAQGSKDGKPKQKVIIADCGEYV
# UniProt Q9H2H8: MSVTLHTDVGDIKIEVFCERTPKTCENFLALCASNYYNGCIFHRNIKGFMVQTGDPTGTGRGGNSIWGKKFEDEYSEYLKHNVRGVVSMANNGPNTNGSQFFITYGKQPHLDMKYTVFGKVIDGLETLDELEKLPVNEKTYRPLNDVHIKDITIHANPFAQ
# UniProt O00743: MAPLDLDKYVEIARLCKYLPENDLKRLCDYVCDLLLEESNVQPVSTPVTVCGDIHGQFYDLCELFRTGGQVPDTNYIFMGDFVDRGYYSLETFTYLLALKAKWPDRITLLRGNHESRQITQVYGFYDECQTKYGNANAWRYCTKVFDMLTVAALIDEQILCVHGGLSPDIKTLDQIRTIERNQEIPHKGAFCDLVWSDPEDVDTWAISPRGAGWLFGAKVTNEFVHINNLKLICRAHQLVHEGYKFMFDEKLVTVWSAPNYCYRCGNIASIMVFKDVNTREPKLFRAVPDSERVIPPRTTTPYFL
# UniProt O14802: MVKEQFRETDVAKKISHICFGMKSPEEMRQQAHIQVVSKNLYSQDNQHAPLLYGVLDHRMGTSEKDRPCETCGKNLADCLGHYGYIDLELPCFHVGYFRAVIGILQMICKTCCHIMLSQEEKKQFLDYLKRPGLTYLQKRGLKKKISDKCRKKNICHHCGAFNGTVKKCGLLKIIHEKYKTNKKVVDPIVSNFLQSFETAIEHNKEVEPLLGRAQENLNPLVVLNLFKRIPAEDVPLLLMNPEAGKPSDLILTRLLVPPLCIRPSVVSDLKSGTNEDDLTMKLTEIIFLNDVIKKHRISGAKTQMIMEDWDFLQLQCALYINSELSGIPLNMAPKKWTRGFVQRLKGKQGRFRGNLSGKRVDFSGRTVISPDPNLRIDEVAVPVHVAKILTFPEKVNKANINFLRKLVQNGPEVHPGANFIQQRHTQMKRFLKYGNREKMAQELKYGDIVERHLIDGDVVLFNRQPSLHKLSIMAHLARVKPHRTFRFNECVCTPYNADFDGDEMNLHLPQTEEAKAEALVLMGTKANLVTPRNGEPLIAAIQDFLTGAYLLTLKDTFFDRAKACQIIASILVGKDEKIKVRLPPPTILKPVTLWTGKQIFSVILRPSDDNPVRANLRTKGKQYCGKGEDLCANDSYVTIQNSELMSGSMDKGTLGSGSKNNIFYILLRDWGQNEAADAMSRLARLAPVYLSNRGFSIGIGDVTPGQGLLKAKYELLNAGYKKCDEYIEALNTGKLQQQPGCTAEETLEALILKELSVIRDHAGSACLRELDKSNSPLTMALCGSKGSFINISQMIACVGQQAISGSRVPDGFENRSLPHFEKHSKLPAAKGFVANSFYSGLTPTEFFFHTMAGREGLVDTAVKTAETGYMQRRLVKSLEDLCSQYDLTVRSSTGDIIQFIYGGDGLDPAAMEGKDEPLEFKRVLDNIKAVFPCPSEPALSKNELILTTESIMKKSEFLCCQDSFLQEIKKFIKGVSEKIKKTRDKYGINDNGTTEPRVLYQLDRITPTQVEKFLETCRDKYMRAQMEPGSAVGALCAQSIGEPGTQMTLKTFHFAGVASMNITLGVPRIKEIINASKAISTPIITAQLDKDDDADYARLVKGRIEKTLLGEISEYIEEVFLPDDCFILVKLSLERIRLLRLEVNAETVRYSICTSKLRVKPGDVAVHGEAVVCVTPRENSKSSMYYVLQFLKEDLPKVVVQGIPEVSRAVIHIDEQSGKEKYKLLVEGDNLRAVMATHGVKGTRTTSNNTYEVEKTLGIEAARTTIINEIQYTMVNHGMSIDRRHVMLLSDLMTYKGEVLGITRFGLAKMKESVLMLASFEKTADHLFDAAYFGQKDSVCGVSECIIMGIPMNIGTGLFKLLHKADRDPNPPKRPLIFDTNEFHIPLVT
# UniProt Q13526, whole entry: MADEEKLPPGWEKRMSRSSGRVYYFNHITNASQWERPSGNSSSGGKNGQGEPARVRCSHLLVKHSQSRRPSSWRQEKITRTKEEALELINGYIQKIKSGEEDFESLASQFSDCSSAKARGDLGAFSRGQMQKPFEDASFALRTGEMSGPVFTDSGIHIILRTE
# The other results are listed elsewhere or left out.
# Compound: COc1ccc(Cn2ccc3ccc(C(=O)NO)cc32)cc1
# Test: dose-dependent thermal stabilisation call (2D-TPP, DLPTP, 10% FDR) (binary (1 = stabilised)); higher = stabilised by the compound
# Details: system: HL-60 intact cells; concentration range 0.04-10 µM
row,Target,dose-dependent thermal stabilisation call
1,POR (UniProt P16435),inactive: 0
2,PIGQ (UniProt Q9BRB3),inactive: 0
3,POMGNT1 (UniProt Q8WZA1),inactive: 0
4,PPFIBP2 (UniProt Q8ND30),inactive: 0
5,PIH1D1 (UniProt Q9NWS0),inactive: 0
6,POLR1A (UniProt O95602),inactive: 0
7,PGLS (UniProt O95336),inactive: 0
8,PRDM10 (UniProt Q9NQV6),inactive: 0
9,PRKCI (UniProt P41743),inactive: 0
10,PKN2 (UniProt Q16513),inactive: 0
11,PIK3CB (UniProt P42338),inactive: 0
12,PRKCB (UniProt P05771),inactive: 0
13,PQBP1 (UniProt O60828),inactive: 0
14,PPFIA3 (UniProt O75145),inactive: 0
15,PRDX5 (UniProt P30044),inactive: 0
16,PNKD (UniProt Q8N490),inactive: 0
17,POLG (UniProt P54098),inactive: 0
18,PIP3AP (UniProt Q9C0I1),inactive: 0
19,PPIL5 (UniProt Q96L50),inactive: 0

# A section from further up:
row,Target,dose-dependent thermal stabilisation call
16,PNKD (UniProt Q8N490),inactive: 0
17,POLG (UniProt P54098),inactive: 0

# More records

row,Target,dose-dependent thermal stabilisation call
1,PGPEP1 (UniProt Q9NXJ5),inactive: 0
2,PRKRA (UniProt O75569),inactive: 0
3,PPCS (UniProt Q9HAB8),inactive: 0
4,PPIE (UniProt Q9UNP9),inactive: 0
5,PPIL3 (UniProt Q9H2H8),inactive: 0
6,PPP6C (UniProt O00743),inactive: 0
7,POGK (UniProt Q9P215),inactive: 0
8,PQLC1 (UniProt Q8N2U9),inactive: 0
9,PPP4R1 (UniProt Q8TF05),inactive: 0
10,PNO1 (UniProt Q9NRX1),inactive: 0
11,PPIL4 (UniProt Q8WUA2),inactive: 0
12,POLR3A (UniProt O14802),inactive: 0
13,POLE2 (UniProt P56282),inactive: 0
14,PPP2R5A (UniProt Q15172),inactive: 0
15,PPP1R12A (UniProt O14974),inactive: 0
16,PPME1 (UniProt Q9Y570),inactive: 0
17,PIN1 (UniProt Q13526),inactive: 0
18,PITPNM1 (UniProt O00562),inactive: 0
